Measurements reported in PubChem BioAssay AID2685 (National Center for Advancing Translational Sciences (NCATS), 2010).
Some of the results follow. Further columns of the screen follow, without active or inactive calls. The list favours compounds with an active or inconclusive main result. Words in brackets tell the shape of the fitted curve; partial curves, single points and poor fits give uncertain potencies.

Assay: qHTS Assay for Lipid Storage Modulators in Drosophila S3 Cells;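 for cell number change: cells counted by Cell Tracker Red CMTPX staining in the red channel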
Conditions: BODIPY lipid droplet fluorescence, 18-24 h; for cell number change: measured here: cell count max response, cells fed with added oleic acid
Outline: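 Drosophila S3 cells got compounds at several concentrations plus oleic acid (400 uM solution). Laser-scanning cytometry with 488 nm excitation read lipid droplets at 500-530 nm and cells at 575-640 nm. Percent activity was relative to 20 uM Triacsin C.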

[1] = measured here: lipid fluorescence (Fed channel) AC50, cells fed with added oleic acid
[2] = measured here: cell number channel AC50, cells fed with added oleic acid

SMILES | AC50 [1] | cell number change [%] | AC50 [2]
NC(N)=N/N=C/c1ccc(Cl)c(Cl)c1 | 0.146 µM [falling, full curve, poor fit] | – | –
O=c1c2[nH]c3cccc(Cl)c3c2ncn1CC1CCCO1 (centres undefined) | 2.91 µM [rising, partial curve] | 6.51 | –
CCCN(CCC)CCNC(=O)c1cc2c(-c3ccccc3F)nn(C)c2s1 | – | -2.01 | –
CCC(C)NC(=O)CC(NS(=O)(=O)c1ccc(C)cc1)c1ccc(OC)cc1 (centres undefined) | 2.06 µM [rising, partial curve, poor fit] | -8.64 | –
COc1cc(CNCCO)cc(Br)c1OCc1ccccc1Cl | 25.9 µM [falling, single point] | -37.5 | 3.66 µM [falling, single point]
Cc1ccc(S(=O)(=O)C(CNC(=O)C(C)C)c2cccs2)cc1 (centres undefined) | – | 14.1 | –
CCOC(=O)C1CN(S(=O)(=O)c2ccccc2)c2cc(S(=O)(=O)CC)ccc2O1 (centres undefined) | 7.31 µM [falling, partial curve] | 0.377 | –
CSC1=NCCN1C(=O)c1ccc2ccccc2c1 | 0.092 µM [rising, single point] | – | 0.116 µM [rising, partial curve]
O=c1c2cc(N3CCOCC3)ccc2[nH]c(=S)n1CCCN1CCN(c2ccccc2F)CC1 | 2.31 µM [rising, partial curve] | 9.53 | –
CC(=O)NCC(=O)NC(C(=O)Nc1ccc2c(c1)OCCO2)c1ccccc1 (centres undefined) | 1.16 µM [falling, full curve] | -12.3 | –
CCOC(=O)N1CCc2c(sc(NC(=O)C3=COCCO3)c2C(N)=O)C1 | 1.84 µM [falling, full curve] | -51.9 | 1.64 µM [falling, partial curve]
CN(CC(=O)Nc1cccc(F)c1)C(=O)CCc1nc2sc3c(c2c(=O)[nH]1)CCCC3 | 0.00517 µM [falling, full curve, poor fit] | -52.6 | 29.1 µM [falling, partial curve]
CSc1cc(C)n(-c2ccccc2)c(=S)c1C(C)=O | – | -0.103 | –
Cc1cc(/C=N/Nc2ccc([N+](=O)[O-])cn2)c(C)n1-c1ccccc1 | – | 19.8 | 4.11 µM [rising, single point]
CCC(=O)N=c1sc2cc([N+](=O)[O-])ccc2n1CCOC | – | 117 | 29.1 µM [rising, single point]
O=C(O)CSC12CC3CC(C1)CC(C(=O)O)(C3)C2 | 29.1 µM [rising, single point] | 48.4 | 6.51 µM [rising, partial curve]
CC(C)(C)n1nc(-c2ccc(F)cc2)c2c(N)ncnc21 | 4.11 µM [rising, single point] | – | –
O=C(Nc1ccccc1)c1ccc(-c2ccc(F)cc2)s1 | – | 1.65 | –
Cc1ccccc1S(=O)Cc1ccc(C(=O)NCCCN2CCCCC2)o1 (centres undefined) | 4.61 µM [falling, full curve] | – | –
CCC(C(=O)Nc1cccc(OC)c1)n1nc(C)c2c(C)n(-c3ccccc3)nc2c1=O (centres undefined) | 6.51 µM [falling, single point] | 0.59 | –
CCCCN(C(=O)CCCc1nc2ccccc2c(=O)[nH]1)c1c(N)n(CCCC)c(=O)[nH]c1=O | – | 21.1 | –

SMILES | AC50 [1] | cell number change [%] | AC50 [2]
COc1cccc(C2C(C(=O)c3ccc(C)o3)=C(O)C(=O)N2CCN2CCOCC2)c1 (centres undefined) | 29.1 µM [falling, single point] | -9.19 | –
Cn1cc(SCC(=O)NCC2CCCO2)c2ccccc21 (centres undefined) | – | – | 6.51 µM [rising, single point]
CCOc1ccccc1NC(=O)CC1Nc2ccccc2NC1=O (centres undefined) | – | 7.69 | –
CCNC(=O)c1ccccc1-c1nc(-c2ccccc2OC)no1 | – | 19.3 | –
CCCC(=O)NNC(=O)c1c(O)c2ccccc2[nH]c1=O | 6.51 µM [rising, single point] | 2.82 | –
Cc1cc(C)n(/N=C/c2c[nH]c3ccccc23)c(=O)c1 | 0.00461 µM [falling, full curve, poor fit] | 3.26 | –
CCOC(=O)/C(=N\Nc1ccc(Br)cc1)N1CC(C)OC(C)C1 (centres undefined) | 2.59 µM [rising, partial curve] | – | –
O=c1[nH]c(Nc2ccccc2)cc2ccccc12 | 14.6 µM [falling, partial curve] | 0.0086 | –
O=C(COc1ccc(Cl)cc1)NCCNc1ccc([N+](=O)[O-])cc1 | 6.51 µM [falling, single point] | 69.5 | 18.4 µM [rising, partial curve]
O=C(CSC1=NCCS1)Nc1ccccc1F | – | -14.8 | –
Cc1ccc(NC(=O)C2CCCC2)cc1S(=O)(=O)N1CCOCC1 | 0.58 µM [rising, single point] | 18.2 | –
Cc1cccc(N2C(S)=C(C#N)C(=O)NC2c2cccs2)c1 (centres undefined) | 20.6 µM [falling, partial curve] | -16.2 | –
COc1ccc(S(=O)(=O)N2CCC(C(=O)Nc3ccccc3N3CCCCC3)CC2)cc1OC | 29.1 µM [rising, single point] | 9.9 | –
N/C(=N\OC(=O)CCC1CCCC1)c1ccccn1 | – | 84.1 | –
CN(CC(=O)Nc1ccncc1)S(=O)(=O)c1ccc(Cl)cc1 | 0.00461 µM [falling, full curve, poor fit] | -17.6 | –
COC(=O)c1cn(-c2ccccc2)nc1-c1ccccc1 | 3.66 µM [rising, partial curve] | -3.09 | –
C=C(C)CN(CC)c1nc(N)c2c(N)nc3c(c2c1C#N)CC(=O)N3C12CC3CC(CC(C3)C1)C2 | 6.51 µM [falling, single point] | -62.1 | 29.1 µM [falling, single point]
Cc1ccc(NC(=O)COC(=O)c2ccc(-n3cccn3)cc2)cc1C | 3.66 µM [rising, partial curve] | -9.52 | –
CCOC(=O)C1=C(C)NC(=S)NC1c1ccc(-c2ccc(Cl)cc2)o1 (centres undefined) | 3.66 µM [falling, full curve, poor fit] | -0.4 | –
CC1=NN(c2cccc(C(=O)O)c2)C(=O)/C1=C\C=C\c1ccco1 | 6.51 µM [falling, partial curve] | -17.8 | –

Three entries from above, ordered by length of the SMILES, smallest number first:
SMILES | AC50 [1] | cell number change [%] | AC50 [2]
Cc1cc(C)n(/N=C/c2c[nH]c3ccccc23)c(=O)c1 | 0.00461 µM [falling, full curve, poor fit] | 3.26 | –
O=C(COc1ccc(Cl)cc1)NCCNc1ccc([N+](=O)[O-])cc1 | 6.51 µM [falling, single point] | 69.5 | 18.4 µM [rising, partial curve]
C=C(C)CN(CC)c1nc(N)c2c(N)nc3c(c2c1C#N)CC(=O)N3C12CC3CC(CC(C3)C1)C2 | 6.51 µM [falling, single point] | -62.1 | 29.1 µM [falling, single point]
